# Experimental data from PubChem BioAssay AID493014 (National Center for Advancing Translational Sciences (NCATS), 2011).
# This is one part of the list. The main result of the screen is listed elsewhere. These columns were measured beside it and carry no call. Most of these compounds were active or inconclusive in the main read-out, so they are no random draw. Potencies come from curve fits of mixed quality, noted in brackets.
# Experiment: qHTS Assay to Find Inhibitors of Chronic Active B-Cell Receptor Signaling
# Settings: ABC-DLBCL IkBa-CBG/CBR reporter, luminescence ratio (green luciferase fused to IkBa over red control in TMD8 lymphoma cells), 4 h
# Procedure, shortened: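 Compounds up to 46 uM were incubated four hours with TMD8 cells whose green CBG68 luciferase is fused to IkappaBalpha; red CBR luminescence normalised the signal, and concentration-effect curves were fitted to fusion, red and ratio data.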
# [1] = measured here: CBR red luminescence, cell number
# [2] = measured here: IkBa-CBG green luminescence
Compound,AC50 [1],AC50 [2]
CN(C)c1ccc(/C=N/NC(=O)c2ccccc2)cc1,"1.26 µM [falling, partial curve]",–
COc1cc(NC2c3ccccc3C(=O)N2Cc2ccc3c(c2)OCO3)cc(OC)c1OC (stereo not given),"0.517 µM [rising, partial curve, poor fit]",–
CC1(C)C(=O)Nc2ccccc2N1C(=O)Cn1ncc(Cl)c(Cl)c1=O,"22.4 µM [falling, single point]",–
CS(=O)(=O)N1CCC(Oc2ccccc2C(=O)NC(C2CC2)C2CC2)CC1,"5.62 µM [rising, partial curve, poor fit]",–
O=C(c1ccccc1)N1CCC(c2nc3c(nnn3Cc3ccccc3Cl)c(=O)[nH]2)CC1,"5.17 µM [falling, partial curve]",–
O=C(NNC(=S)Nc1ccccc1)c1ccco1,"3.55 µM [falling, partial curve]",–
O=C(COC(=O)CCCN1C(=O)c2ccccc2C1=O)Nc1ncc(Cl)cc1Cl,"17.8 µM [rising, partial curve, poor fit]",–
CCOc1ccc(CNC(=O)c2ccc(Sc3ccc(C)cc3)c(N)c2)cc1OC,"10 µM [falling, partial curve, poor fit]",–
CC(C)(C)c1ccc(NC(=O)C2=CC=CN3CCS(=O)(=O)N=C23)cc1,"16.4 µM [rising, partial curve, poor fit]",–
Cc1nn(C)cc1C1C(C#N)=C(N)N(c2ccc(F)c([N+](=O)[O-])c2)C2=C1C(=O)CCC2 (stereo not given),"20.6 µM [falling, single point]",–
COc1ccccc1Nc1nc2nonc2[nH]c1=O,"15.8 µM [falling, single point]",–
O=C(Nn1cnnc1)c1cc(-c2cccc(Br)c2)nc2ccccc12,"31.6 µM [rising, single point]",–
CCC(=O)Nc1nc2ccc3sc(C)nc3c2s1,"10 µM [falling, partial curve, poor fit]",–
CCOc1ccc(CCNC(=O)C2CCCN(c3nn4c(=O)cc(C)nc4s3)C2)cc1OCC (stereo not given),"6.51 µM [rising, single point]",–
COc1cccc(CNn2c(-c3cccc(C)c3)nc3ccccc3c2=O)c1,"29.1 µM [falling, single point]",–
Cc1cc2c(=O)oc(-c3ccccc3Br)nc2s1,"17.8 µM [falling, single point]",–
N#C/C(=N\O)c1nc(-c2ccccc2)cs1,"3.98 µM [rising, single point]",–
O=C(NCCO)c1cc(-c2cc(C(=O)NCCO)c3ccccc3n2)nc2ccccc12,"0.562 µM [rising, partial curve, poor fit]",–
Cc1ccnc(NC(=O)c2ccc(COc3ccc(Cl)cc3)o2)c1,"29.1 µM [falling, single point]",–
S=C(Nc1ccccc1)N1CCN(C(=S)c2ccccc2)CC1,"35.5 µM [falling, single point]",–
O=C(c1ccccc1Cc1ccccc1)N1CCN(S(=O)(=O)c2ccccc2Br)CC1,"20.6 µM [falling, single point]",–

# Three entries picked at random from those above:
Compound,AC50 [1],AC50 [2]
S=C(Nc1ccccc1)N1CCN(C(=S)c2ccccc2)CC1,"35.5 µM [falling, single point]",–
CC1(C)C(=O)Nc2ccccc2N1C(=O)Cn1ncc(Cl)c(Cl)c1=O,"22.4 µM [falling, single point]",–
O=C(c1ccccc1Cc1ccccc1)N1CCN(S(=O)(=O)c2ccccc2Br)CC1,"20.6 µM [falling, single point]",–

# Additional entries follow:

Compound,AC50 [1],AC50 [2]
CCOC(=O)c1c(NC(=O)Cn2ccsc2=N)sc(C)c1C,"14.1 µM [falling, single point]",–
O=C(CCCOc1ccc(Cl)cc1)N1CCCCC1,"3.26 µM [rising, full curve, poor fit]",–
O=C(/C=C/Nc1ccccc1F)c1ccc(Br)cc1,"5.8 µM [falling, full curve]",–
CCC(=O)Nc1nnc(SCc2ccc(F)cc2)s1,"1.46 µM [rising, full curve, poor fit]",–
Cc1noc(C)c1C(=O)Nc1nc2ccc(F)cc2s1,"5.8 µM [falling, partial curve, poor fit]",–
O=C(NC(=S)N1CCCCC1CO)C12CC3CC(CC(C3)C1)C2 (stereo not given),"0.112 µM [rising, full curve, poor fit]",–
CN(c1ccc(O)cc1)S(=O)(=O)c1ccc2ccccc2c1,"11.2 µM [falling, partial curve, poor fit]",–
Cc1ccc(C=Nc2ccc(N(C)C)cc2)o1,"2.24 µM [falling, full curve, poor fit]",–
Cc1ccc(-c2csc3ncn(/N=C/N(C)C)c(=O)c23)o1,"8.2 µM [falling, partial curve, poor fit]",–
CC(=O)Nc1cccc(C(=O)OC(C)C(=O)NC2CCCc3ccccc32)c1 (stereo not given),"3.98 µM [falling, single point]","6.31 µM [rising, partial curve, poor fit]"
O=C(COc1cccc2ccccc12)NNC(=O)[C@@H]1CCCC[C@@H]1C(=O)O,"29.1 µM [falling, single point]",–
CC(=O)c1c(C)[nH]c(C(=O)OCc2csc(CC(=O)Nc3ccccc3C)n2)c1C,"1.16 µM [falling, full curve, poor fit]",–
CCOC(=O)CNC(=O)CNC(=O)Cn1ccc2ccccc2c1=O,"1.64 µM [rising, full curve, poor fit]",–
CC(=O)Nc1ccc(S(=O)(=O)N(c2cccnc2)S(=O)(=O)c2ccc(NC(C)=O)cc2)cc1,"29.1 µM [rising, single point]",–
Cc1ccc(C(=O)c2cc([N+](=O)[O-])ccc2N2CCOCC2)c(C)c1,"8.91 µM [rising, partial curve, poor fit]","7.94 µM [falling, partial curve, poor fit]"
COC(=O)c1cc2oc3ccccc3c2n1Cc1ccccn1,"6.51 µM [falling, single point]",–
O=C(O)c1cccc2c1C(=O)N(Cc1ccccc1)C2,"2.24 µM [rising, partial curve, poor fit]",–
COC(=O)c1sccc1NC(=O)C1CC2CCC1C2 (stereo not given),"20.6 µM [rising, single point]",–
CO/N=C/c1ccc(Sc2ccccc2N)c([N+](=O)[O-])c1,"10 µM [rising, partial curve]",–
O=C(NC(=Nc1nc2ccccc2o1)NC(=O)c1ccccc1)c1ccccc1,"23.1 µM [falling, single point]",–
COc1ccc(-c2nnc(SCc3nnc(-c4ccccc4)o3)n2C)cc1OC,"11.2 µM [rising, partial curve, poor fit]",–

Compound,AC50 [1],AC50 [2]
O=C(COc1ccccc1Br)Nc1ccc2c(c1)OCCCO2,"10 µM [falling, partial curve, poor fit]",–
CCOC(=O)CCCC(=O)Nc1ncnc2c1C(c1ccccc1)c1c(ccc3ccccc13)O2 (stereo not given),"20.6 µM [falling, single point]",–
CC1=NN(c2ccccc2)C(=O)/C1=C\C=C1\N(C)c2ccccc2C1(C)C,"2.06 µM [rising, partial curve, poor fit]",–
CN(C)CCCN1CC(C(=O)O)CC1=O (stereo not given),"0.0316 µM [falling, full curve, poor fit]",–
Cc1ccsc1/C=C1\SC(N2CC(C)OC(C)C2)=NC1=O (stereo not given),"16.4 µM [rising, partial curve, poor fit]",–
CC(=O)c1ccc(N2CCN(S(=O)(=O)c3c(C)[nH]c(C)c3C(=O)N3CCCCC3)CC2)cc1,"3.16 µM [rising, partial curve, poor fit]",–
O=C(NN/C(=N/S(=O)(=O)c1ccc(Cl)cc1)c1ccccc1)c1ccc(O)cc1,"14.6 µM [falling, partial curve]",–
O=C(O)c1cc(N/N=C/c2cccc3ccccc23)ccc1Cl,"0.316 µM [falling, full curve, poor fit]",–
Cc1ccccc1NC(=O)c1ccc(S(=O)(=O)N2CCCC2)cc1,"35.5 µM [falling, single point]",–
O=C(C1CCC(CNS(=O)(=O)c2cccs2)CC1)N1CCN(c2ccc(Cl)cc2)CC1 (stereo not given),"6.31 µM [falling, single point]",–
CN(C)c1ccc(CNc2ncnc3sccc23)cc1,"0.447 µM [falling, full curve, poor fit]",–
Cc1cc(N=Nc2c(O)c3ccccc3[nH]c2=O)ccc1N=Nc1ccc(C(=O)N(C)C)cc1,"7.94 µM [falling, partial curve]",–
C/C(=N/NC(=O)c1ccc2c(c1)OCO2)c1cccc(NC(=O)C(C)(C)C)c1,"10 µM [falling, partial curve]",–
CC(C)c1ccc(NC(=O)c2cc(S(=O)(=O)NC3CCCCC3)ccc2F)cc1,"35.5 µM [rising, single point]",–
Cc1cc(NC(=O)C(C)SCC(=O)OC(C)C(=O)Nc2ccc(F)cc2Cl)no1 (stereo not given),"13 µM [rising, partial curve, poor fit]",–
Cc1ccc(OCC(O)CN2CCOCC2)c(C)c1 (stereo not given),"3.55 µM [falling, partial curve, poor fit]",–
CCCCn1nc(C(=O)NNC(=O)c2ccncc2)c2ccccc2c1=O,"0.794 µM [rising, full curve, poor fit]",–
COc1ccc(Cl)cc1NC(=O)COC(=O)CC(C)(C)CC1=NS(=O)(=O)c2ccccc2N1,"3.55 µM [rising, single point]",–
COc1ccccc1CNC(=O)C(=O)NCCC1CCCCN1S(=O)(=O)c1ccc(C)cc1 (stereo not given),"14.6 µM [falling, single point]",–
COc1ccccc1Nc1nc(C)cc(=O)[nH]1,"3.26 µM [rising, partial curve, poor fit]",–
COc1cccc(CNC(=O)CCC2CCCN(C(=O)c3cccc4c(C)c(C)[nH]c34)C2)c1 (stereo not given),"35.5 µM [falling, single point]",–
